No constants are given. Whether binding was seen depends on the method and setting.
Biological target: T1, Bacillus subtilis PhoD, mature domain (Bacillus subtilis strain 168), P42251
T1 chain: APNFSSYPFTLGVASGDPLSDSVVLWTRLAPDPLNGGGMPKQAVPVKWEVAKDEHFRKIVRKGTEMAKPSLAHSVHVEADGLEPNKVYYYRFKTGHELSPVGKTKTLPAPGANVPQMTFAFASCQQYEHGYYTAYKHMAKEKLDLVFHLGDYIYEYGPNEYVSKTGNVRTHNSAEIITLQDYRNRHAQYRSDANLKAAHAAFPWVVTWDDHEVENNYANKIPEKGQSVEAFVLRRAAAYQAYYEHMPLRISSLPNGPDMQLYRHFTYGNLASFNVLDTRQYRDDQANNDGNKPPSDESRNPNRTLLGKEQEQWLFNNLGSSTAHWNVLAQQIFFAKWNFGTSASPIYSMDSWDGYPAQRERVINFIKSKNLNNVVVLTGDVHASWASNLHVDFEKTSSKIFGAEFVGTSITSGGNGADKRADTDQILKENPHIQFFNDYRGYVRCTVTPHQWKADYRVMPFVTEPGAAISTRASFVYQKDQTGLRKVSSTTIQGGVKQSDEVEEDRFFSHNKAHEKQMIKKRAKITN
Test: SEC-MALS; size-exclusion multi-angle laser light scattering; 20 mM Hepes, pH 7.5, 400 mM NaCl, 2 mM calcium acetate; flow rate 0.4 ml/min; both purified
Conditions: remark: other sources report otherwise

B1: Bacillus subtilis PhoD, mature domain, P42251 57-583 (enzyme)
chain: APNFSSYPFTLGVASGDPLSDSVVLWTRLAPDPLNGGGMPKQAVPVKWEVAKDEHFRKIVRKGTEMAKPSLAHSVHVEADGLEPNKVYYYRFKTGHELSPVGKTKTLPAPGANVPQMTFAFASCQQYEHGYYTAYKHMAKEKLDLVFHLGDYIYEYGPNEYVSKTGNVRTHNSAEIITLQDYRNRHAQYRSDANLKAAHAAFPWVVTWDDHEVENNYANKIPEKGQSVEAFVLRRAAAYQAYYEHMPLRISSLPNGPDMQLYRHFTYGNLASFNVLDTRQYRDDQANNDGNKPPSDESRNPNRTLLGKEQEQWLFNNLGSSTAHWNVLAQQIFFAKWNFGTSASPIYSMDSWDGYPAQRERVINFIKSKNLNNVVVLTGDVHASWASNLHVDFEKTSSKIFGAEFVGTSITSGGNGADKRADTDQILKENPHIQFFNDYRGYVRCTVTPHQWKADYRVMPFVTEPGAAISTRASFVYQKDQTGLRKVSSTTIQGGVKQSDEVEEDRFFSHNKAHEKQMIKKRAKITN
Question: For B1, which binding is on record?
Answer: Its binding is “no binding”.

Source: article PMC4223295, “Crystal Structure of the Bacillus subtilis Phosphodiesterase PhoD Reveals an Iron and Calcium-containing Active Site” (The Journal of Biological Chemistry, 2014)
